For some assays here: Some results come without the dose or concentration used.
Assays:
[1] = plasma concentrations of tocopherols and 5-NO2-γ-tocopherol in volunteers; type: in vivo, human; settings: mean ± SEM
Text: Smoking is recognized as a major contributing factor to heart disease and γ-T reportedly decreases more than α-T in smokers. Hypertension is also a strong risk factor for heart disease. […] Seven subjects indicated a chronic hypertensive condition. As outlined in Table I, γ-tocopherol tended to decrease in hypertensive subjects while nitration products tended to increase in both smokers and hypertensive subjects. This was the trend regardless of whether the tocopherol concentrations were normalized to plasma triglycerides (Table I).

[2] = nitration of plasma γ-tocopherol during FeCl3-induced thrombosis; type: in vivo, rat; settings: anesthetized rats, FeCl3-laden patch on descending aorta, HPLC-ECD
[3] = chronic smokers; cited from earlier work
[4] = CAD patients, cited from earlier work; for reduction in lipid-normalized plasma concentration: N=69

Row | Compound | 5-NO2-γ-toc/y-toc × 1000 ([1]; hypertensives, N = 7) | 5-NO2-γ-toc/y-toc × 1000 ([1]; population, N = 54) | 5-NO2-γ-toc/y-toc × 1000 ([1]; smokers, N = 7) | change of plasma level during FeCl3-induced thrombosis [2] | reduction of plasma level [3] | reduction in lipid-normalized plasma concentration [4] | decrease of the ratio of γT/αT [4] [%]
1 | Cc1c(C)c2c(c([N+](=O)[O-])c1O)CCC(C)(CCCC(C)CCCC(C)CCCC(C)C)O2 (centres unmarked) [5-NO2-γ-tocopherol, 5-nitro-γ-tocopherol] | 8.20 ± 2.21 | 3.49 ± 0.74 | 5.47 ± 1.96 | formed within minutes after initiation of thrombosis and increased steadily |  |  | 
2 | Cc1c(O)cc2c(c1C)O[C@](C)(CCC[C@H](C)CCC[C@H](C)CCCC(C)C)CC2 [γ-tocopherol] |  |  |  | decrease | more than 50% | 25% | 35
3 | Cc1c(C)c2c(c(C)c1O)CC[C@@](C)(CCC[C@H](C)CCC[C@H](C)CCCC(C)C)O2 [α-tocopherol, reference compound] |  |  |  | not substantially affected | 20-25% | statistically unaffected | 

— patent publication US6346544B2, “Desmethyl tocopherols for protecting cardiovascular tissue” (Oklahoma Medical Research Foundation, priority 2000, dated 2002)
